These results are taken from patent US8524691B2, “Phosphonated rifamycins and uses thereof for the prevention and treatment of bone and joint infections” (The Medicines Company, priority 2008, dated 2013).

This series is described as follows: Bone powder binding in vitro. To be noted: 1 mg/ml compound, bone meal powder 10 mg/ml in PBS, 37° C., 1 h.
Turning to `CCC(=O)OCOC(=O)N[C@@H](CCCCNC(=O)CCC(P(=O)(O)O)P(=O)(O)O)C(=O)N(C)CC(=O)O[C@@H]1[C@@H](C)[C@@H](O)[C@@H](C)[C@H](OC(C)=O)[C@H](C)[C@@H](OC)/C=C/O[C@@]2(C)Oc3c(C)c(O)c4c(c3C2=O)C2=NC3(CCN(CC(C)C)CC3)NC2=C(NC(=O)/C(C)=C\C=C\[C@@H]1C)C4=O.N.N` [Compound 95], the “% Bone binding” value amounted to 99.8%.
Turning to `CCN(CC)CC.CCN(CC)CC.CO[C@H]1/C=C/O[C@@]2(C)Oc3c(C)c(O)c4c(c3C2=O)C2=NC3(CCN(CC(C)C)CC3)N(C(=O)OCc3ccc(OC(=O)CCCC(P(=O)(O)O)P(=O)(O)O)cc3)C2=C(NC(=O)/C(C)=C\C=C\[C@H](C)[C@H](O)[C@@H](C)[C@@H](O)[C@@H](C)[C@H](OC(C)=O)[C@@H]1C)C4=O` [Compound 18], the “% Bone binding” value is 98.4%.
The result for `CO[C@H]1/C=C/O[C@@]2(C)Oc3c(C)c(O)c4c(c3C2=O)C2=NC3(CCN(CC(C)C)CC3)N(C(=O)Oc3ccc(NC(=O)CCC(P(=O)(O)O)P(=O)(O)O)cc3)C2=C(NC(=O)/C(C)=C\C=C\[C@H](C)[C@H](O)[C@@H](C)[C@@H](O)[C@@H](C)[C@H](OC(C)=O)[C@@H]1C)C4=O` [Compound 28] reads 99.7%; that for `CCN(CC)CC.CO[C@H]1/C=C/O[C@@]2(C)Oc3c(C)c(O)c4c(c3C2=O)C2=NC3(CCN(CC(C)C)CC3)NC2=C(NC(=O)/C(C)=C\C=C\[C@H](C)[C@H](OC(=O)CN(C)C(=O)Nc2ccc(CC(P(=O)(O)O)P(=O)(O)O)cc2)[C@@H](C)[C@@H](O)[C@@H](C)[C@H](OC(C)=O)[C@@H]1C)C4=O` [Compound 142b], 98.9%.
As to `CO[C@H]1/C=C/O[C@@]2(C)Oc3c(C)c(O)c4c(c3C2=O)C2=NC3(CCN(CC(C)C)CC3)NC2=C(NC(=O)/C(C)=C\C=C\[C@H](C)[C@H](OC(=O)CN(C)CCOC(=O)CCC(P(=O)(O)O)P(=O)(O)O)[C@@H](C)[C@@H](O)[C@@H](C)[C@H](OC(C)=O)[C@@H]1C)C4=O` [Compound 36], the “% Bone binding” value was found to be 99.7%.
The result for `CO[C@H]1/C=C/O[C@@]2(C)Oc3c(C)c(O)c4c(c3C2=O)C2=NC3(CCN(CC(C)C)CC3)N(C(=O)OCc3cc(C)c(OC(=O)CCC(P(=O)(O)O)P(=O)(O)O)c(C)c3)C2=C(NC(=O)/C(C)=C\C=C\[C@H](C)[C@H](O)[C@@H](C)[C@@H](O)[C@@H](C)[C@H](OC(C)=O)[C@@H]1C)C4=O.N.N` [Compound 19] reads 99.6%; that for `CCC(=O)OCOC(=O)N[C@@H](CCC(=O)NC(P(=O)(O)O)P(=O)(O)O)C(=O)N(C)CC(=O)O[C@@H]1[C@@H](C)[C@@H](O)[C@@H](C)[C@H](OC(C)=O)[C@H](C)[C@@H](OC)/C=C/O[C@@]2(C)Oc3c(C)c(O)c4c(c3C2=O)C2=NC3(CCN(CC(C)C)CC3)NC2=C(NC(=O)/C(C)=C\C=C\[C@@H]1C)C4=O` [Compound 102], 99.8%; that for `CCC(=O)OCOC(=O)N[C@@H](Cc1ccc(OCCCC(P(=O)(O)O)P(=O)(O)O)cc1)C(=O)N(C)CC(=O)O[C@@H]1[C@@H](C)[C@@H](O)[C@@H](C)[C@H](OC(C)=O)[C@H](C)[C@@H](OC)/C=C/O[C@@]2(C)Oc3c(C)c(O)c4c(c3C2=O)C2=NC3(CCN(CC(C)C)CC3)NC2=C(NC(=O)/C(C)=C\C=C\[C@@H]1C)C4=O.N.N` [Compound 89], 99.8%.
